Assay [1] has as its target T1, NfL in clinical samples (临床样本中的NfL) (UniProt P07196).
T1 sequence (looked up): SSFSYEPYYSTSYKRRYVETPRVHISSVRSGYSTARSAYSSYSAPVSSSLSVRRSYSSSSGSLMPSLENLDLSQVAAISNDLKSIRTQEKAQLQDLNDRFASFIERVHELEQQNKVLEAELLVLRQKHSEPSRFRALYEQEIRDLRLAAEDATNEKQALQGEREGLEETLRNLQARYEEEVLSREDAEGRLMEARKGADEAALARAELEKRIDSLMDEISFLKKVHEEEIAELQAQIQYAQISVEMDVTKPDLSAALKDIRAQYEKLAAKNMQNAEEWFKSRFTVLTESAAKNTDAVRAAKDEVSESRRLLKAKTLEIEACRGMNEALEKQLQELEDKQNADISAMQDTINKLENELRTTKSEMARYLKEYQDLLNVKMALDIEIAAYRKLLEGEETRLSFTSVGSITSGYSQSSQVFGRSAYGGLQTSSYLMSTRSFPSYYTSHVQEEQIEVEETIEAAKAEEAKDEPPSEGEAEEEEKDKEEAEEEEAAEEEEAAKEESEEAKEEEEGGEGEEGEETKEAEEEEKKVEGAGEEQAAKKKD
The experiment in a line: sandwich chemiluminescence on clinical samples P1-P4.

Assay [2] has as its target T1, NfL in clinical samples (临床样本中的NfL). Briefly: sandwich chemiluminescence on clinical samples P1-P4, capture antibody on beads.

These are yes or no findings as the source states them, for the method shown. Some binding calls cover weakened binding; strength is not graded here.

B1: Anti-NfL-rRmab-1 (antibody, V domains shown)
VH: QSVEESGGRLVTPGTPLTLTCTASGFSLSIHDMSWVRQAPGKGLEWIGLISSNNNTYYASWAKGRFTISKTSTTVDLKITSPTTEDTATYFCARGGFSTDLWGPGTPVTVSS
VL: DVVMTQTPASVSEPVGGTVTIKCQASQSIYTYLSWYQQKPGQPPKLLIYGASNLASGVSSRFKGSGSGTDYTLTISGVQCDDAATYYCQCTYFSSSYVGGFGGGTEVVVK
Consider B1, for which the binding entry in assay [1] is on record as “binds”.

B2: Rabbit anti-NfL mAb (antibody, V domains shown)
VH: QSVEESGGRLVTPGTPLTLTCTASGIDLSNYAMNWVHQAPGKGLEWIAIIYASGSTYYTTWAKGRFTISKTSSTTVDLKITSPTTEDTATYFCARALSMTNVYTFNIWGPGTLVTVSS
VL: DVVMTQTPASVSEPVGGTVTIKCQASQNIYNNLAWYQQKPGQPPKLLIYKASTLASGVSSRFKGSGSGTEFTLTISDLECADAATYYCQCTYGSSYVAFGGGTEVVVK
In the case of B2, in assay [2], the binding entry is listed as “binds”.

(Values after CN117624356A.)
